This is an account of results in article PMC7819943, “Rice protein-binding microarrays: a tool to detect cis-acting elements near promoter regions in rice”.

By UniProt entry, the sequences of proteins in these tests, tags left out.
UniProt Q0JBA9, entry or part of it: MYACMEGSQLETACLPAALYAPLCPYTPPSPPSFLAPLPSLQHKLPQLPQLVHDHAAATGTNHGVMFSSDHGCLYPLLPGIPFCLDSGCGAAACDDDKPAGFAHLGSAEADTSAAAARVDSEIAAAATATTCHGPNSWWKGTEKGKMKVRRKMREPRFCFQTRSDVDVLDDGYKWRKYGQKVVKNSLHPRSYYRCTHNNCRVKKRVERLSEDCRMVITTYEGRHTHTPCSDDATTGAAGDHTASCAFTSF

The list shows a part of the results.

The experiment concerns the target OsWRKY34 (Oryza sativa, UniProt Q0JBA9 1-250). The experiment can be described thus: protein-binding microarray (RPBM); PBS, 2% BSA, 51.3 ng/ul salmon testes DNA, 50 uM zinc acetate, 200 nM TF, 25 C, 1 h; high values mean tight binding. The settings on record: protein: recombinant; tags: N-terminal polyhistidine and DsRed monomer fusion (pET32a); label: CyDye5-dUTP incorporated in the synthesized complementary strand; 3' TTTTT single-stranded linker to array surface; dsDNA, one strand shown. The procedure, abridged: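 Binding signal here means per-feature fluorescence intensity in arbitrary units. The values were read on an Axon 4000B scanner after a custom Agilent array, double-stranded by primer extension with Cy5-dUTP, was incubated with 200 nM protein at 25 °C for 1 h in PBS with 2% BSA, salmon testes DNA and 50 µM zinc acetate, then washed. The proteins were transcription factors with an N-terminal polyhistidine tag and DsRed, expressed in E. coli BL21-CodonPlus and purified on Ni–NTA.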
On to “CGCTCGCAATCGCTGCTCCGTTCGCCGCCTCACATCCATGCGGAGTCACCTAGTGCAG”, for which the binding signal is 9230 fluorescence intensity (a.u.).
In the case of “GGTCCATGGTAATGGTGTAGTCGTGGTGGTTTTGTTTCTCCGGAGTCACCTAGTGCAG” it was 8460 fluorescence intensity (a.u.); in that of “AGTCTAAGGCAAAAGACAACTATATTCCGCGCTCTACCTTCGGAGTCACCTAGTGCAG”, 8100 fluorescence intensity (a.u.).
Take “TTAGGGTGAAATTTATTGTGGGAATTCATTTGGATATTTTCGGAGTCACCTAGTGCAG”: the binding signal is 8580 fluorescence intensity (a.u.).
In the case of “GCCCATGTATAGTTCATTATTTTAGGCTTTGAACTTTATACGGAGTCACCTAGTGCAG” it was 10600 fluorescence intensity (a.u.); in that of “TTCACACCGTCGTATTTGCCACTTTACTGACGCTCGAAGCCGGAGTCACCTAGTGCAG”, 8060 fluorescence intensity (a.u.); in that of “CACCCATCGCCGACGACCCACGCACGCAGTCCACCAACGCCGGAGTCACCTAGTGCAG”, 8130 fluorescence intensity (a.u.).
For “AGCGCACATATATATATTTTTTACTCTCTTTAGTCACAAACGGAGTCACCTAGTGCAG”, the binding signal is 9240 fluorescence intensity (a.u.).
Turning to “TGGATGGATATACTCGCTCTCGACCGCGCGCCAAAAAAAACGGAGTCACCTAGTGCAG”, the binding signal was 8300 fluorescence intensity (a.u.).
With “ATTTGATGAATCTGTATATTAAATTGTCAATTTGTGTACCCGGAGTCACCTAGTGCAG” the figure was 8550 fluorescence intensity (a.u.).
For the sequence “AAACCAGTACAACTGCCATTCTTTACCGTTCCCTTTGCCCCGGAGTCACCTAGTGCAG”, the binding signal was 9420 fluorescence intensity (a.u.).
As for “CTTCTTCTTGTCCTGCGCAACCGATGGGCGGGTTCTTGATCGGAGTCACCTAGTGCAG”, the binding signal was 18800 fluorescence intensity (a.u.).
For “ACACATCCCTCCGGCATAATTCATTTTTTCCTTTACTATTCGGAGTCACCTAGTGCAG”, the binding signal was 9620 fluorescence intensity (a.u.).
With “AACCCTGGATTTCAGTGTCCAACGTTTAACCGTCCATCTTCGGAGTCACCTAGTGCAG” the figure was 9390 fluorescence intensity (a.u.); with “GCCGCTGCCGGCCGCCGACCGCCGACCGCCGGTGCGCACCCGGAGTCACCTAGTGCAG”, 8770 fluorescence intensity (a.u.).
On to “TATCATGCACTCCTTTTTTTTCTCTTTTTTTGCAAAACCTCGGAGTCACCTAGTGCAG”, for which the binding signal is 8180 fluorescence intensity (a.u.).
For “ACATACTCACGCTTGCCCGGGAACCTCTCGTAGCCTCACACGGAGTCACCTAGTGCAG”, the binding signal was 11100 fluorescence intensity (a.u.).
On to “TTGTAGATTGTTTAGGGATTGTTGTGTTGTTGTTCATTATCGGAGTCACCTAGTGCAG”, for which the binding signal is 8100 fluorescence intensity (a.u.).
Take “ACGAACGTGATGCTTTTTTTTCGAGCAGTTTTAATAATATCGGAGTCACCTAGTGCAG”: the binding signal is 8500 fluorescence intensity (a.u.).
For the sequence “CTTCTCCTAACCTCCTTTGATCGTTCGTTGGTTTGTTTTTCGGAGTCACCTAGTGCAG”, the binding signal was 13300 fluorescence intensity (a.u.).
As for “TTATTGCTCGTGCATGCCTCGGTTGGTCCGACATTTTCATCGGAGTCACCTAGTGCAG”, the binding signal is 9530 fluorescence intensity (a.u.).
In the case of “CCATCAAATAATCATCTTTAGTGAGTTACCTTTTGCTTTCCGGAGTCACCTAGTGCAG”, the binding signal was 8970 fluorescence intensity (a.u.).
As to “GGTTTTGATAGTTGAGGGATATGTTGTGTCCGGTTTTCTACGGAGTCACCTAGTGCAG”, the binding signal was 10500 fluorescence intensity (a.u.).
Take “AGTCGCCTCCTCGCACCTACTACCCTACTAGGTCATGCCACGGAGTCACCTAGTGCAG”: the binding signal was 8660 fluorescence intensity (a.u.).
In the case of “TGAGTTTTTGATTGCAACGTTTGACCACTCGTTTTATTCACGGAGTCACCTAGTGCAG” it was 12800 fluorescence intensity (a.u.); in that of “CACTCCGGTCGTCTTCCTCGTGACCTCGTCAAGTCCTCAGCGGAGTCACCTAGTGCAG”, 8480 fluorescence intensity (a.u.); in that of “TTAATCGGTGTTGCGCCAGAGGCCGCGTCTTGAGCTTGCTCGGAGTCACCTAGTGCAG”, 8940 fluorescence intensity (a.u.).
Regarding “ATCGATGATGCATTCCTTTCTTTTCTGACAGTAGTGATATCGGAGTCACCTAGTGCAG”, the binding signal is 9550 fluorescence intensity (a.u.).
For the sequence “CACTCATAGATATGCTTCTCTCACAGGTCTATATATTGGCCGGAGTCACCTAGTGCAG”, the binding signal was 8450 fluorescence intensity (a.u.).
Regarding “TTGGCTCGAGGCGGGGCTGGTTGGTTGGTTGGTTTGGTGGCGGAGTCACCTAGTGCAG”, the binding signal was 14600 fluorescence intensity (a.u.).
Turning to “AACCTTGCTTTTGGCTGTGTTTAGTTCCACCGATAAAAAACGGAGTCACCTAGTGCAG”, the binding signal was 8250 fluorescence intensity (a.u.).
As to “TTGTCGTTGTTGTTCATGCCATTTTTCTGAAGTGAAAGATCGGAGTCACCTAGTGCAG”, the binding signal is 9670 fluorescence intensity (a.u.).
With “AATAAGACGAACGGTCAAATATATTTAAAAAAGTCAACGGCGGAGTCACCTAGTGCAG” the figure was 10500 fluorescence intensity (a.u.); with “GTTGTTAATGTACATCCATCATGATTTCCAATTCAGTTTCCGGAGTCACCTAGTGCAG”, 9050 fluorescence intensity (a.u.); with “GGTCGATTACTTCTAGTTTGTATTCTAGTGTAATTATTTCCGGAGTCACCTAGTGCAG”, 9250 fluorescence intensity (a.u.).
On to “ATCTAGCAGACTTTGGCTATGTACTAAACTCATTTTTTTTCGGAGTCACCTAGTGCAG”, for which the binding signal was 9140 fluorescence intensity (a.u.).
For the sequence “TAAAACTACTCATTTTGGGCCCTGTTTCATCGTTTCTTCTCGGAGTCACCTAGTGCAG”, the binding signal was 11200 fluorescence intensity (a.u.).
As to “GTTGACTTTTTAGCACGTGTTTGACCGTTCGTCTTATTAACGGAGTCACCTAGTGCAG”, the binding signal was 9780 fluorescence intensity (a.u.).
“CAGCCCATTTCAGTCCATTTCCTCTCTCTCTCTCTCTCTCCGGAGTCACCTAGTGCAG”: the binding signal is 8780 fluorescence intensity (a.u.).
Take “ATGGTGGTTGTGTCTTATATTTTGGAATGGAGGGACTTATCGGAGTCACCTAGTGCAG”: the binding signal was 10500 fluorescence intensity (a.u.).
In the case of “AATATATTTTATCTAATTTCACGGTATATGTACCTGTCATCGGAGTCACCTAGTGCAG”, the binding signal is 8560 fluorescence intensity (a.u.).
Regarding “TGCCGCTCTACCGTCTTCTCGTCTCACGCGACGTGTCGTACGGAGTCACCTAGTGCAG”, the binding signal is 8970 fluorescence intensity (a.u.).
